Some of the results follow.
Assays:
Assay in all cases: log2 fold change, soluble protein after heating vs DMSO (PISA); higher = thermal stabilisation; K562 lysate, 10 uM; active = over 0.2 and 3.5 SD of the protein, either way, in both replicates (recomputed)
erlotinib = compound: C#Cc1cccc(Nc2ncnc3cc(OCCOC)c(OCCOC)cc23)c1 [erlotinib]
Method in brief: (§1)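 To prepare the extract, K562 pellets were dounce-homogenised in PBS pH 7.4 with 1 mM MgCl2, giving crude material at 1 mg/mL protein. This was treated with 10 μM compound for 30 min, then heated in aliquots for 3 min over 48°C-58°C before pooling and addition of NP-40 to 0.5% at 4°C. Centrifugation at 21,000xg for 90 min left soluble protein in the supernatant, which TMTpro 16plex LC-MS/MS quantified with equalised channel sums. Results are log-two fold changes in thermal stability compared with solvent controls, from duplicates.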

Protein sequences, listed by entry. Tags and fused reporters are not part of them. Lines headed by an entry give the natural chain unless they say otherwise; changes in a name come on top.
UniProt P00403, whole entry, looked up: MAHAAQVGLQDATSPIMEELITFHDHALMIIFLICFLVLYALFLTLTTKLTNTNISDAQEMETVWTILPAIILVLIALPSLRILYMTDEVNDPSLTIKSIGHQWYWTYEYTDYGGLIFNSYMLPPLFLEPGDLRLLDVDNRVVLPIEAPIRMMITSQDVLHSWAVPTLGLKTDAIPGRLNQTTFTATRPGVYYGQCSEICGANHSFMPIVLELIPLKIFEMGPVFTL
UniProt P03886, whole entry, looked up: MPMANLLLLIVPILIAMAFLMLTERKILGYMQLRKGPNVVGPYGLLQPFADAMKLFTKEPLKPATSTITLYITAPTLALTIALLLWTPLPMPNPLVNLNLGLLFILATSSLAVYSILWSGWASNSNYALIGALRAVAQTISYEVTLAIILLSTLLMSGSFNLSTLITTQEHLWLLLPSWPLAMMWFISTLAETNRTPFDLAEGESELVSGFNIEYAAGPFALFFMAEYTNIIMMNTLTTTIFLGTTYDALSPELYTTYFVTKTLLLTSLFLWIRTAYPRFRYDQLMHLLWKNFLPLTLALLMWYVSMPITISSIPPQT
UniProt P03905, whole entry, looked up: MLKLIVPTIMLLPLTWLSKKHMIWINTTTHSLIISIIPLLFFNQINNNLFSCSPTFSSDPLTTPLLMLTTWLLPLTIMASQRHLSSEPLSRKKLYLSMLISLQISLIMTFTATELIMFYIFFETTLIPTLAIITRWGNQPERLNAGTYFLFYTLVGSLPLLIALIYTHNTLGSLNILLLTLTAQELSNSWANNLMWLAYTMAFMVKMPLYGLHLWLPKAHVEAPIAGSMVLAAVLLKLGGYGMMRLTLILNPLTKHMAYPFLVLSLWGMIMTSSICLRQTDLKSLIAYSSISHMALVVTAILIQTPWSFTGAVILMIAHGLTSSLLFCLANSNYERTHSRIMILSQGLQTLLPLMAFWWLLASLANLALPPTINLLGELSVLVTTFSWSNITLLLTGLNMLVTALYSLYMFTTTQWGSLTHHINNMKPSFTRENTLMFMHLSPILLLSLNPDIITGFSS
UniProt P00846: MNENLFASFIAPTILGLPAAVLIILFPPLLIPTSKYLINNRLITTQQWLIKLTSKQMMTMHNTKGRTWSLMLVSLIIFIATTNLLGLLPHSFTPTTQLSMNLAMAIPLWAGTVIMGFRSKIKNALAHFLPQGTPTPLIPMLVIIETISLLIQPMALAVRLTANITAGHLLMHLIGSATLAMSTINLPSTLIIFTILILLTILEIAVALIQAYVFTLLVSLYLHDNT

[1] = compound: C/C(=N\NC(=O)C1=CC(=CC=C1)S(=O)(=O)N2CCOCC2)/C3=C(C=CC(=C3)Cl)O
Method in brief: as §1

[2] = compound: C1=CC(=CC=C1C2=NC3=C(N2)C=C(C=C3)C(=O)N)OC4=CC=C(C=C4)Cl
Method in brief: as §1

[3] = compound: C1=CC2=C(C=CC(=C2)/C=C\3/C(=O)NC(=NCC4=CC=CS4)S3)N=C1
Method in brief: as §1

[4] = compound: C1=CC2=NC=CN=C2C=C1/C=C/3\C(=O)NC(=O)S3
Method in brief: as §1

[5] = compound: C1=CC=C(C=C1)C2=NC(=C(N2)C3=CC=NC=C3)C4=CC(=C(C=C4)Cl)O
Method in brief: as §1

[6] = compound: C1=CC=C2C(=C1)C3=NNC4=CC=CC(=C43)C2=O
Method in brief: as §1

[7] = compound: C1CCN(C1)C(=O)NC2=CC=CC(=C2)NC3=NC=C(C(=N3)NCCC4=CN=CN4)Br
Method in brief: as §1

[8] = compound: C1CN(CCC1(CC2=CC=C(C=C2)Cl)N)C3=NC=NC4=C3C=CN4
Method in brief: as §1

IRAK-1-4 Inhibitor I = compound: C1COCCN1CCN2C3=CC=CC=C3N=C2NC(=O)C4=CC(=CC=C4)[N+](=O)[O-] [IRAK-1-4 Inhibitor I]
Method in brief: as §1

ibrutinib = compound: C=CC(=O)N1CCC[C@@H](n2nc(-c3ccc(Oc4ccccc4)cc3)c3c(N)ncnc32)C1 [ibrutinib]
Method in brief: as §1

[9] = compound: CC(=O)c1cnc2ccc(-c3cc(Cl)c(O)c(Cl)c3)nc2c1N[C@H]1CC[C@H](CN(C)C)CC1
Method in brief: as §1

ralimetinib = compound: CC(C)(C)Cn1c(N)nc2ccc(-c3[nH]c(C(C)(C)C)nc3-c3ccc(F)cc3)nc21 [ralimetinib]
Method in brief: as §1

[10] = compound: CC(C)(O)CC(=O)NCCn1ccc2ncnc(Nc3ccc(Oc4cccc(C(F)(F)F)c4)c(Cl)c3)c21
Method in brief: as §1

[11] = compound: CC(C)C1=C2N=C(C=C(N2N=C1)NCC3=CC=CC=C3)NCCCCCCN
Method in brief: as §1

[12] = compound: CC1=C(C(CC(=O)N1)C2=CC=C(C=C2)C(F)(F)F)C(=O)NC3=C(C=C4C(=C3)C=NN4)F
Method in brief: as §1

[13] = compound: CC1=C(C2=C(C=C1)C(=O)C3=CC=CC=C3N2CCCN)C
Method in brief: as §1

[14] = compound: CC1=C(C=C(C=C1)NC(=O)C2=CC(=CC=C2)C(C)(C)C#N)NC3=CC4=C(C=C3)N=CN(C4=O)C
Method in brief: as §1

[15] = compound: CC1=C(C=C(C=C1)NC(=O)C2=CC(=CC=C2)N(C)C)NC(=O)C3=CC=C(C=C3)O
Method in brief: as §1

[16] = compound: CC1=CC=C(C=C1)SC2=C3C=C(SC3=CN=C2)C(=O)N
Method in brief: as §1

Measured: log2 fold change

MT-CO2 (UniProt P00403)
inactive: erlotinib -0.028 | [1] -0.078 | [2] -0.006 | [3] -0.001 | [4] -0.15 | [5] -0.015 | [6] 0.026 | [7] 0.008 | [8] 0.057 | IRAK-1-4 Inhibitor I 0.022 | ibrutinib 0.035 | [9] 0.018 | ralimetinib 0.051 | [10] -0.001 | [11] -0.039 | [12] -0.034 | [13] -0.049 | [14] 0 | [15] -0.017 | [16] 0.055

MRPS33 (UniProt Q9Y291)
inactive: erlotinib 0.047 | [1] -0.049 | [2] -0.034 | [3] 0.02 | [4] -0.07 | [5] -0.09 | [6] 0.018 | [7] 0.026 | [8] -0.017 | IRAK-1-4 Inhibitor I -0.159 | ibrutinib -0.043 | [9] 0.014 | ralimetinib 0.028 | [10] -0.036 | [11] 0.05 | [12] -0.103 | [13] -0.06 | [14] -0.121 | [15] -0.023 | [16] 0.073

MUC1, A0A087WWM1
inactive: erlotinib 0.038 | [1] 0.074 | [2] 0.077 | [3] -0.073 | [4] -0.018 | [5] -0.023 | [6] -0.028 | [7] 0.047 | [8] 0.029 | IRAK-1-4 Inhibitor I -0.002 | ibrutinib -0.075 | [9] 0.006 | ralimetinib 0.002 | [10] -0.006 | [11] -0.075 | [12] 0.089 | [13] 0.084 | [14] 0.063 | [15] 0.019 | [16] -0.037

MRPL48 (UniProt Q96GC5)
inactive: erlotinib -0.007 | [1] 0.052 | [2] -0.032 | [3] 0.011 | [4] -0.005 | [5] 0 | [6] 0.03 | [7] -0.015 | [8] -0.026 | IRAK-1-4 Inhibitor I -0.032 | ibrutinib -0.05 | [9] 0.052 | ralimetinib 0.03 | [10] -0.019 | [11] 0.023 | [12] 0.035 | [13] -0.063 | [14] 0.022 | [15] 0.04 | [16] 0.017

MRPL58 (UniProt Q14197)
inactive: erlotinib 0.025 | [1] -0.005 | [2] 0.054 | [3] -0.003 | [4] 0.01 | [5] -0.002 | [6] -0.025 | [7] -0.078 | [8] 0.043 | IRAK-1-4 Inhibitor I -0.012 | ibrutinib 0.025 | [9] 0.032 | ralimetinib -0.022 | [10] 0.006 | [11] -0.013 | [12] 0.089 | [13] -0.034 | [14] -0.035 | [15] 0.032 | [16] 0.053

MRPL3 (UniProt P09001)
inactive: erlotinib -0.034 | [1] 0.002 | [2] 0.017 | [3] 0.039 | [4] -0.013 | [5] 0.004 | [6] -0.042 | [7] -0.039 | [8] -0.039 | IRAK-1-4 Inhibitor I 0.01 | ibrutinib 0.122 | [9] 0.005 | ralimetinib 0.038 | [10] 0.011 | [11] 0.027 | [12] 0.015 | [13] -0.106 | [14] -0.073 | [15] 0.029 | [16] 0.039

MRPL57 (UniProt Q9BQC6)
inactive: erlotinib -0.059 | [1] 0.065 | [2] -0.016 | [3] -0.126 | [4] -0.096 | [5] -0.047 | [6] 0.04 | [7] 0.05 | [8] -0.016 | IRAK-1-4 Inhibitor I -0.054 | ibrutinib 0.002 | [9] -0.092 | ralimetinib 0.043 | [10] 0.047 | [11] -0.055 | [12] -0.056 | [13] -0.138 | [14] -0.091 | [15] -0.014 | [16] 0.016

MT-ND1 (UniProt P03886)
inactive: erlotinib -0.061 | [1] -0.227 | [2] -0.14 | [3] 0.055 | [4] -0.036 | [5] -0.005 | [6] 0.061 | [7] -0.038 | [8] 0.02 | IRAK-1-4 Inhibitor I 0.004 | ibrutinib 0.032 | [9] -0.006 | ralimetinib 0.061 | [10] -0.101 | [11] -0.052 | [12] 0.056 | [13] -0.007 | [14] 0.055 | [15] -0.005 | [16] 0.088

MRPL9 (UniProt Q9BYD2)
inactive: erlotinib 0.074 | [1] -0.088 | [2] -0.015 | [3] 0.028 | [4] -0.016 | [5] 0.027 | [6] 0.005 | [7] -0.074 | [8] 0.022 | IRAK-1-4 Inhibitor I 0.003 | ibrutinib -0.035 | [9] 0.002 | ralimetinib -0.065 | [10] -0.015 | [11] 0.02 | [12] -0.007 | [13] -0.033 | [14] 0.061 | [15] -0.012 | [16] -0.028

MRPS10 (UniProt P82664)
inactive: erlotinib -0.008 | [1] -0.066 | [2] 0.035 | [3] -0.023 | [4] -0.057 | [5] 0.04 | [6] -0.113 | [7] -0.034 | [8] 0.017 | IRAK-1-4 Inhibitor I 0.027 | ibrutinib -0.02 | [9] -0.04 | ralimetinib 0.008 | [10] -0.023 | [11] 0.028 | [12] 0.023 | [13] -0.034 | [14] 0.009 | [15] 0.021 | [16] -0.008

MRPL45 (UniProt Q9BRJ2)
inactive: erlotinib 0.033 | [1] 0.038 | [2] 0.027 | [3] 0.032 | [4] 0.035 | [5] -0.018 | [6] -0.04 | [7] -0.005 | [8] 0.011 | IRAK-1-4 Inhibitor I 0.069 | ibrutinib 0.079 | [9] -0.026 | ralimetinib -0.01 | [10] 0.042 | [11] 0.038 | [12] 0.003 | [13] -0.028 | [14] 0.066 | [15] 0.095 | [16] -0.008

MT-ND4 (UniProt P03905)
inactive: erlotinib -0.073 | [1] -0.118 | [2] -0.012 | [3] -0.104 | [4] -0.024 | [5] -0.038 | [6] 0.144 | [7] 0.008 | [8] 0.076 | IRAK-1-4 Inhibitor I 0.004 | ibrutinib 0.119 | [9] -0.015 | ralimetinib -0.017 | [10] -0.036 | [11] -0.019 | [12] 0.067 | [13] -0.13 | [14] 0.046 | [15] 0.038 | [16] 0.165

MT-ATP6 (UniProt P00846)
inactive: erlotinib -0.076 | [1] 0.032 | [2] -0.064 | [3] -0.166 | [4] 0.032 | [5] -0.03 | [6] 0.165 | [7] -0.044 | [8] -0.034 | IRAK-1-4 Inhibitor I 0.087 | ibrutinib -0.11 | [9] -0.06 | ralimetinib -0.039 | [10] -0.141 | [11] -0.106 | [12] 0.064 | [13] -0.016 | [14] 0.034 | [15] -0.16 | [16] 0.13

MRPS34 (UniProt P82930)
inactive: erlotinib 0.053 | [1] -0.039 | [2] 0.027 | [3] 0.034 | [4] 0.026 | [5] -0.055 | [6] 0.056 | [7] 0.049 | [8] 0.115 | IRAK-1-4 Inhibitor I 0.051 | ibrutinib -0.02 | [9] -0.003 | ralimetinib -0.024 | [10] 0.022 | [11] -0.031 | [12] -0.019 | [13] -0.074 | [14] -0.041 | [15] 0.015 | [16] 0.022

MRPS25 (UniProt P82663)
inactive: erlotinib -0.079 | [1] 0.012 | [2] 0.106 | [3] -0.084 | [4] -0.023 | [5] -0.028 | [6] -0.005 | [7] -0.033 | [8] 0.031 | IRAK-1-4 Inhibitor I 0.039 | ibrutinib -0.001 | [9] 0.07 | ralimetinib -0.037 | [10] 0.038 | [11] 0.046 | [12] -0.071 | [13] -0.141 | [14] -0.015 | [15] 0.023 | [16] 0.065

Pulled one by one from the list above (two):
MRPS25 (UniProt P82663)
inactive: erlotinib -0.079 | [1] 0.012 | [2] 0.106 | [3] -0.084 | [4] -0.023 | [5] -0.028 | [6] -0.005 | [7] -0.033 | [8] 0.031 | IRAK-1-4 Inhibitor I 0.039 | ibrutinib -0.001 | [9] 0.07 | ralimetinib -0.037 | [10] 0.038 | [11] 0.046 | [12] -0.071 | [13] -0.141 | [14] -0.015 | [15] 0.023 | [16] 0.065

MT-ATP6 (UniProt P00846)
inactive: erlotinib -0.076 | [1] 0.032 | [2] -0.064 | [3] -0.166 | [4] 0.032 | [5] -0.03 | [6] 0.165 | [7] -0.044 | [8] -0.034 | IRAK-1-4 Inhibitor I 0.087 | ibrutinib -0.11 | [9] -0.06 | ralimetinib -0.039 | [10] -0.141 | [11] -0.106 | [12] 0.064 | [13] -0.016 | [14] 0.034 | [15] -0.16 | [16] 0.13

(next part)

MRPS31 (UniProt Q92665)
inactive: erlotinib -0.015 | [1] -0.042 | [2] 0.056 | [3] 0.042 | [4] -0.021 | [5] -0.028 | [6] -0.048 | [7] -0.022 | [8] 0.02 | IRAK-1-4 Inhibitor I 0.005 | ibrutinib -0.01 | [9] -0.039 | ralimetinib -0.006 | [10] -0.006 | [11] 0 | [12] -0.01 | [13] -0.071 | [14] -0.006 | [15] -0.022 | [16] -0.006

Source: the supplement of paper PMC10849652
